Reference: PubChem BioAssay AID1159591 (NIAID, 2016)

Test: 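TLR7/8 agonist R848 and Tnf expression after gene knock-down in mouse macrophages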
System: mouse RAW264.7 G9 macrophage reporter clone (GFP-p65, Tnf promoter-mCherry)
Reagent: single siRNA against mouse genes
Time to read-out: cells assayed 48 to 72 hours after siRNA transfection; R848 for 16 hours before fixing
Treatment: R848 (TLR7/8 agonist) for 16 hours before fixation; dose not given
Read-out: 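After R848 for 16 hours, nuclear Tnf promoter mCherry signal imaged minus background, scaled per plate by median and MAD into robust z against non-targeting controls, averaged across replicates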
Reading the numbers: mean Tnf reporter z-score: higher = stronger Tnf promoter reporter signal than controls
Active means: 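Activity score from absolute z: steps above 1, 1.5, 2 and 2.5 give 25 to 100; active cut not stated, but active genes here sit near z -1.5 or below, or 1.5 or above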
Calls: active = reporter clearly up or down; inactive = little reporter change
The whole screen tested 756 reagents; shown is a random part of them. In the full data, 130 (17%) were called active. 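Active calls include both lower and higher Tnf reporter signal.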 Reagents against one gene are numbered here. Reagent sequences are not shown. Not stated in the record: the amount of reagent.

Cxcl11 #1 → mean Tnf reporter z-score: -0.609; outcome: inactive
Cxcl11 #2 → mean Tnf reporter z-score: -0.697; outcome: inactive
Cxcl11 #3 → mean Tnf reporter z-score: -0.212; outcome: inactive
Cxcl11 #4 → mean Tnf reporter z-score: 0.273; outcome: inactive
Cxcl11 #5 → mean Tnf reporter z-score: -1.55; outcome: active
Cxcl11 #6 → mean Tnf reporter z-score: -1.56; outcome: active
Crebbp #1 → mean Tnf reporter z-score: 0.679; outcome: inactive
Crebbp #2 → mean Tnf reporter z-score: -2.35; outcome: active
Crebbp #3 → mean Tnf reporter z-score: -1.76; outcome: active
Crebbp #4 → mean Tnf reporter z-score: -0.186; outcome: inactive
Crebbp #5 → mean Tnf reporter z-score: -3.77; outcome: active
Crebbp #6 → mean Tnf reporter z-score: -0.459; outcome: inactive
Jun #1 → mean Tnf reporter z-score: 0.193; outcome: inactive
Jun #2 → mean Tnf reporter z-score: -1.78; outcome: active
Jun #3 → mean Tnf reporter z-score: -0.139; outcome: inactive
Jun #4 → mean Tnf reporter z-score: -1.27; outcome: inactive
Jun #5 → mean Tnf reporter z-score: -0.821; outcome: inactive
Jun #6 → mean Tnf reporter z-score: 0.155; outcome: inactive
Dusp2 #1 → mean Tnf reporter z-score: -0.0903; outcome: inactive
Dusp2 #2 → mean Tnf reporter z-score: -0.831; outcome: inactive
Dusp2 #3 → mean Tnf reporter z-score: 1.22; outcome: inactive
Dusp2 #4 → mean Tnf reporter z-score: 0.129; outcome: inactive
Dusp2 #5 → mean Tnf reporter z-score: -1.03; outcome: inactive
Dusp2 #6 → mean Tnf reporter z-score: -0.105; outcome: inactive
Il12a #1 → mean Tnf reporter z-score: -0.00904; outcome: inactive
Il12a #2 → mean Tnf reporter z-score: -0.814; outcome: inactive
Il12a #3 → mean Tnf reporter z-score: -1.01; outcome: inactive
Il12a #4 → mean Tnf reporter z-score: -0.842; outcome: inactive
Il12a #5 → mean Tnf reporter z-score: -0.878; outcome: inactive
Il12a #6 → mean Tnf reporter z-score: -0.2; outcome: inactive
Tab1 #1 → mean Tnf reporter z-score: -0.187; outcome: inactive
Tab1 #2 → mean Tnf reporter z-score: -1.94; outcome: active
Tab1 #3 → mean Tnf reporter z-score: -0.868; outcome: inactive
Tab1 #4 → mean Tnf reporter z-score: -0.47; outcome: inactive
Tab1 #5 → mean Tnf reporter z-score: 1.34; outcome: inactive
Tab1 #6 → mean Tnf reporter z-score: -1.6; outcome: active
Ifnar2 #1 → mean Tnf reporter z-score: -0.412; outcome: inactive
Ifnar2 #2 → mean Tnf reporter z-score: -0.553; outcome: inactive
Ifnar2 #3 → mean Tnf reporter z-score: 0.0225; outcome: inactive
Ifnar2 #4 → mean Tnf reporter z-score: 0.325; outcome: inactive
Ifnar2 #5 → mean Tnf reporter z-score: -0.256; outcome: inactive
Ifnar2 #6 → mean Tnf reporter z-score: -1.81; outcome: active
Map2k3 #1 → mean Tnf reporter z-score: -0.791; outcome: inactive
Map2k3 #2 → mean Tnf reporter z-score: -0.825; outcome: inactive
Map2k3 #3 → mean Tnf reporter z-score: 0.224; outcome: inactive
Map2k3 #4 → mean Tnf reporter z-score: -1.19; outcome: inactive
Map2k3 #5 → mean Tnf reporter z-score: -0.937; outcome: inactive
Map2k3 #6 → mean Tnf reporter z-score: 0.253; outcome: inactive
Tlr3 #1 → mean Tnf reporter z-score: -0.426; outcome: inactive
Tlr3 #2 → mean Tnf reporter z-score: -1.93; outcome: active
Tlr3 #3 → mean Tnf reporter z-score: -0.396; outcome: inactive
Tlr3 #4 → mean Tnf reporter z-score: 0.646; outcome: inactive
Tlr3 #5 → mean Tnf reporter z-score: 0.836; outcome: inactive
Tlr3 #6 → mean Tnf reporter z-score: 0.612; outcome: inactive
Tab3 #1 → mean Tnf reporter z-score: -0.849; outcome: inactive
Tab3 #2 → mean Tnf reporter z-score: -0.6; outcome: inactive
Tab3 #3 → mean Tnf reporter z-score: -0.891; outcome: inactive
Tab3 #4 → mean Tnf reporter z-score: 1.27; outcome: inactive
Tab3 #5 → mean Tnf reporter z-score: -0.87; outcome: inactive
Tab3 #6 → mean Tnf reporter z-score: -0.661; outcome: inactive

Already shown: entries from further up.
Tlr3 #4 → mean Tnf reporter z-score: 0.646; outcome: inactive
Tlr3 #5 → mean Tnf reporter z-score: 0.836; outcome: inactive
Tlr3 #6 → mean Tnf reporter z-score: 0.612; outcome: inactive
Tab3 #1 → mean Tnf reporter z-score: -0.849; outcome: inactive
